Laboratory results reported in article doi:10.1101/340851.
These are yes or no findings as the source states them, for the method shown. Some binding calls cover weakened binding; strength is not graded here.

Protein sequences, listed by entry. Tags and fused reporters are not part of them. Residues count along the entry.
UniProt P55854, residues 1-92: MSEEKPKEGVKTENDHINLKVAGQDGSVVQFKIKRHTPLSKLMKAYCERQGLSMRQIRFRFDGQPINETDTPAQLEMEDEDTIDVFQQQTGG

Target: T1, PIAS4 (SUMO E3), as spotted on the protein array (UniProt Q8N2W9)
T1 sequence: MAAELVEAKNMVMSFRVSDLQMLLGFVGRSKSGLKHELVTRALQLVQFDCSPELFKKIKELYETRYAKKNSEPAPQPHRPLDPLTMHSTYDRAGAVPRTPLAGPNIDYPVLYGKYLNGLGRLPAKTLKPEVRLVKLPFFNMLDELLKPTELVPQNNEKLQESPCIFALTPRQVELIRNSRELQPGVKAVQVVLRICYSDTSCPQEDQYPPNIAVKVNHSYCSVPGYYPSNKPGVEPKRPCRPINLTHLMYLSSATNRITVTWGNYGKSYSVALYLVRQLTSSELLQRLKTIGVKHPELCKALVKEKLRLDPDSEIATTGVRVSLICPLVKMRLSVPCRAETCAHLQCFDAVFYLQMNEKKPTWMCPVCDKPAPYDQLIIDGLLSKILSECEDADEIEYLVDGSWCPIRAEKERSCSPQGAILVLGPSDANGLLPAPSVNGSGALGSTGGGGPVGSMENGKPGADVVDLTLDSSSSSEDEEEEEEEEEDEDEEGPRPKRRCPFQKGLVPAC
Assay: peptide or protein array

- binding: binds
Substance: poly-SUMO-3 (from UniProt P55854 1-92)
